Assay results reported in article PMC4628070, “Independent Mechanisms Target SMCHD1 to Trimethylated Histone H3 Lysine 9-Modified Chromatin and the Inactive X Chromosome” (Molecular and Cellular Biology, 2015).
No constants are given. Whether binding was seen depends on the method and setting. In cells and extracts the contact can be indirect. A yes stands for co-enrichment or nearness to the bait. Other partners may have been found.

Protein sequences, listed by entry. Tags and fused reporters are not part of them.
UniProt Q6P5D8: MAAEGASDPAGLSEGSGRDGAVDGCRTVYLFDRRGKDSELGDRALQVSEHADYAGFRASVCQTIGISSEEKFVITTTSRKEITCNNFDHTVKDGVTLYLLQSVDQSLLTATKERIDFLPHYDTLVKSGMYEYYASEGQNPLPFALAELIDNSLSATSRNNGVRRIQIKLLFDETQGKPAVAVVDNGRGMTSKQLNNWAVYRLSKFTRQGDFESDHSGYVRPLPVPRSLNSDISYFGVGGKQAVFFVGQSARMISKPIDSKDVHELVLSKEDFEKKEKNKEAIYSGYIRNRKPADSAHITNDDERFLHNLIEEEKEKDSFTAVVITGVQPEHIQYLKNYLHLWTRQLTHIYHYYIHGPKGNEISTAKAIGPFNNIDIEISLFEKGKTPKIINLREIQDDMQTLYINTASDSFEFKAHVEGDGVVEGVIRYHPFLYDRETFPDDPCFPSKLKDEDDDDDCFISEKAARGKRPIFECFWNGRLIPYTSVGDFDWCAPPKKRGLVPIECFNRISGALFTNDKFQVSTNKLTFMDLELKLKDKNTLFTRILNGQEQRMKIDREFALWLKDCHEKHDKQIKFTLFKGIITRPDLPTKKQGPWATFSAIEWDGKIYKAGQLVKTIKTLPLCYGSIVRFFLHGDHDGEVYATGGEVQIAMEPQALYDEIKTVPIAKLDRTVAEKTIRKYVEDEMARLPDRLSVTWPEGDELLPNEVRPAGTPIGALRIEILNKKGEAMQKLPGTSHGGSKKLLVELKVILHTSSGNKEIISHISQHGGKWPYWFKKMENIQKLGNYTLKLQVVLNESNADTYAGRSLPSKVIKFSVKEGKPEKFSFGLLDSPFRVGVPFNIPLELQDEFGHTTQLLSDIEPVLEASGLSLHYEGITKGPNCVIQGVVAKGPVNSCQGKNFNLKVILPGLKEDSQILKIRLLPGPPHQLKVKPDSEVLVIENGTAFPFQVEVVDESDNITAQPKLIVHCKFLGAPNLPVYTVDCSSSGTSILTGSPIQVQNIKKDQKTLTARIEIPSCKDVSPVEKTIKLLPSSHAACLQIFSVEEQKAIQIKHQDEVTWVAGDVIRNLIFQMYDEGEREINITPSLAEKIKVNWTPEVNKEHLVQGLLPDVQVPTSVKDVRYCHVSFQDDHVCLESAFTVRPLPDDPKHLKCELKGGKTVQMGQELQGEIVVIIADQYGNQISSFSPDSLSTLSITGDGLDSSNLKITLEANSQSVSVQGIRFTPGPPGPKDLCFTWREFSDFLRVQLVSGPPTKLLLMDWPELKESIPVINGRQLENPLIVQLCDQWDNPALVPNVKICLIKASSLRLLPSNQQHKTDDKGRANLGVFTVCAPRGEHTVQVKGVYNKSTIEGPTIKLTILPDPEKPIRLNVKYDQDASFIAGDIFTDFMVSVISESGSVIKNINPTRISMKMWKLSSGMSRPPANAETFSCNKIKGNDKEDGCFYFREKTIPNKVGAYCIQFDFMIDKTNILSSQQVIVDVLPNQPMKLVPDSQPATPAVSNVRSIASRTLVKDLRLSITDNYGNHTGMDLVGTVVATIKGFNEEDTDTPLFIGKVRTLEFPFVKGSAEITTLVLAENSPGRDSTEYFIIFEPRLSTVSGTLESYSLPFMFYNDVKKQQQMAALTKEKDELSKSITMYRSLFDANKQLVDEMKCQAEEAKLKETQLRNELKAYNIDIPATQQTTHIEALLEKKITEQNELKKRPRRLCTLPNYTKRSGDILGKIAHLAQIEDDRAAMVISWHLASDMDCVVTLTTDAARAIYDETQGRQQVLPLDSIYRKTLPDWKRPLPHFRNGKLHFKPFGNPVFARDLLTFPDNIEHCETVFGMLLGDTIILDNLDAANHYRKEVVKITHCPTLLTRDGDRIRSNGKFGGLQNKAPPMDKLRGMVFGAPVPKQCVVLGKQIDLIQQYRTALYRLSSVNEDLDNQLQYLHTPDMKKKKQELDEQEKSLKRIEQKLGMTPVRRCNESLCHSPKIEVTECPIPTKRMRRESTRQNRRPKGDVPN
UniProt P23198: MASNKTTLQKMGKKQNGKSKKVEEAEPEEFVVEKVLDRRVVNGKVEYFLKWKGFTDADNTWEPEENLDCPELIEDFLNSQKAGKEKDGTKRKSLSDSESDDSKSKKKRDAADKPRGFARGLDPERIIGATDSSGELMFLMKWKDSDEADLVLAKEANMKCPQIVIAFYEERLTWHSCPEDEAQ

B1: Ligand-dependent nuclear receptor-interacting factor 1 isoform 1 (protein, UniProt Q8CDD9 1-755)
chain: MSNSLQSVILKTAEEKSGSRCISGCMYQVVPTIGSDGKKLLQLLPISKSSGNLIPVVQSPVMSHGLKANTEKPVQVTFQTQISSSSTSASVQLPVFQPANTTKCFFTGAIDTTGKDRVTSVRTGNFTPPVSNIQNHGVKIHKLTRQTFTIPPSTQNDSSHFIFNTPSLLPNVNSSILPSGNHLKIPAHAEVKSVLASSLPPLVQQKILGTATTSTSGTVEASQIPTVVYVHPVNSVKFVVTKKTQTIYPKPVTFNTLQIPPNVATETQLKGGQHPQAAPVNSIFQEYLQPGIPCIIPVKSSNNVATKVLNTFVGRKNLGDNTIDTPLLNTNSSGRTHSVSEPIKDNALIMFNGKVWLNEKGTCGLPSKIDQQNSVSSDIPLKDSSQLVSSSIVTEISREILNSVLVKSKSFQLKTKSLSNSQLASMANLRAEKNEKVERPSFSVTNPHTMNQSTHCLKQSKTVFINPVFPDGFRTGQNAPRKGNLVQNIEKICSSVDAATVTSQQCVFRDQESQTQYEMASIVKKEIQEKGNNKKYSQGSHTNIKASCLKNDAEFKKLFGLTKDLRVCLTRIPDHLSSGKSFNSFNSLMKSSSYKDANIVVKKEEKKQSFSKKRKAETMKMGNTKKIKIENADDTVMSIMNGTDVASSQPLSSILPTSDISQHNIVTSHSTTREDKRTEAEHCSHEKQEKGTLSSSTSFEQSTFLNKNFMEDIFPVTPPELEETIRDEKIRRLKQILREKEAALEELRKKMYQKQ

Molecular target: SMCHD1-FLAG (stably expressed in mouse embryonic stem cells) (mouse) (UniProt Q6P5D8)
Assay: affinity purification with mass spectrometry; SMCHD1-FLAG immunoprecipitated with M2 anti-FLAG antibody from ESC nuclear extracts, copurifying proteins identified by MS/MS; two independent experiments (PGK12.1-derived clone; Smchd1-/- ESC clone G2)

Row | Molecule | binding
1 | HP1γ (Chromobox homolog 3) (from UniProt P23198 1-183) | binds
2 | B1 | binds
